Patent US20220204611A1
Residue numbers refer to the chain shown, from its start. No constants are given. Whether binding was seen depends on the method and setting. Some results given as binding are weak or reduced against the parent protein; the word gives no strength.

T1: human TREM2 (human) (UniProt Q9NZC2)
T1 sequence: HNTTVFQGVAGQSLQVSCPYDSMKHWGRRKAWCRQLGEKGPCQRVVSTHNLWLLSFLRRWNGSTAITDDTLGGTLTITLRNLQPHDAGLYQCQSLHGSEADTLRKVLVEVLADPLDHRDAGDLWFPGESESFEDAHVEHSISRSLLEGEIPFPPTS

B1: V3 (Fab, V domains shown)
VH: EVQLVQSGAEVKKPGESLKISCKGSGYSFASYWIAWVRQMPGKGLEWMGIIYPGDSDTRYSPSFQDQVTISADKSISTAYLQWSSLKASDTAMYFCARGRTFYYDSSDYFDYWGQGTLVTVSS
VL: DIQMTQSPSSVSASVGDRVTITCRASQGISSWLAWYQQKPGKAPKLLIYAASSRQNGVPSRFSGSGSGTDFTLTISSLQPEDFATYFCQQADRFPRTFGQGTKLEIK
B2: V40 (Fab, V domains shown)
VH: B1 VH with A30G, T58V, D66G, G99Q, F110S
VL: B1 VL with R54L, N56L
B3: V60 (Fab, V domains shown)
VH: B1 VH with S28H, A30T, T58V, D66G, G99Q, F110S
VL: B1 VL with R54L, N56R, Q89G, R93S
B4: V52 (Fab, V domains shown)
VH: B1 VH with A30E, D66G
VL: B1 VL with R54L, N56R
B5: V90 (Fab, V domains shown)
VH: B1 VH with A30T, Y32E, D66G, G99Q
VL: B1 VL with S31R, R54L, R93S
B6: V76 (Fab, V domains shown)
VH: B1 VH with A30G, S63E, D66G, G99Q, F110S
VL: B1 VL with R54L, N56K, T69R, R93S
B7: V49 (Fab, V domains shown)
VH: B1 VH with A30N, I50T, Y60L, D66G, G99S
VL: B1 VL with R93S, F94Y
B8: V84 (Fab, V domains shown)
VH: B1 VH with S28G, A30T, D66G, G99Q, F110S
VL: B1 VL with A50G, R54L, R93S
B9: V27 (Fab, V domains shown)
VH: B1 VH with A30T, S61A, D66G, A97V, G99S
VL: B1 VL with R54L, N56R, R93S
B10: V48 (Fab, V domains shown)
VH: B1 VH with A30G, T58V, D66G, G99M
VL: B1 VL with R54L, N56T, R93S, F94L
B11: V73 (Fab, V domains shown)
VH: B1 VH with A30G, S63G, D66G
VL: B1 VL with R93S, F94Y
B12: V24 (Fab, V domains shown)
VH: B1 VH with A30T, T58V, D66G, G99S
VL: B1 VL with R54L, N56K, R93S, R96H

Each binder was assayed against T1, human TREM2 (human) (assay: yeast-displayed Fab FACS).

| binding | Binder |
| --- | --- |
| binds | B1 |
| binds | B2 |
| binds | B3 |
| binds | B4 |
| binds | B5 |
| binds | B6 |
| binds | B7 |
| binds | B8 |
| binds | B9 |
| binds | B10 |
| binds | B11 |
| binds | B12 |
